Experimental data as given in paper PMC11099142.
These are yes or no findings as the source states them, for the method shown. In cells and extracts the contact can be indirect. Some binding calls cover weakened binding; strength is not graded here.

The chains behind the UniProt entries cited, without tags or fusion partners. Residues count along the entry.
UniProt P08069, residues 31-1367: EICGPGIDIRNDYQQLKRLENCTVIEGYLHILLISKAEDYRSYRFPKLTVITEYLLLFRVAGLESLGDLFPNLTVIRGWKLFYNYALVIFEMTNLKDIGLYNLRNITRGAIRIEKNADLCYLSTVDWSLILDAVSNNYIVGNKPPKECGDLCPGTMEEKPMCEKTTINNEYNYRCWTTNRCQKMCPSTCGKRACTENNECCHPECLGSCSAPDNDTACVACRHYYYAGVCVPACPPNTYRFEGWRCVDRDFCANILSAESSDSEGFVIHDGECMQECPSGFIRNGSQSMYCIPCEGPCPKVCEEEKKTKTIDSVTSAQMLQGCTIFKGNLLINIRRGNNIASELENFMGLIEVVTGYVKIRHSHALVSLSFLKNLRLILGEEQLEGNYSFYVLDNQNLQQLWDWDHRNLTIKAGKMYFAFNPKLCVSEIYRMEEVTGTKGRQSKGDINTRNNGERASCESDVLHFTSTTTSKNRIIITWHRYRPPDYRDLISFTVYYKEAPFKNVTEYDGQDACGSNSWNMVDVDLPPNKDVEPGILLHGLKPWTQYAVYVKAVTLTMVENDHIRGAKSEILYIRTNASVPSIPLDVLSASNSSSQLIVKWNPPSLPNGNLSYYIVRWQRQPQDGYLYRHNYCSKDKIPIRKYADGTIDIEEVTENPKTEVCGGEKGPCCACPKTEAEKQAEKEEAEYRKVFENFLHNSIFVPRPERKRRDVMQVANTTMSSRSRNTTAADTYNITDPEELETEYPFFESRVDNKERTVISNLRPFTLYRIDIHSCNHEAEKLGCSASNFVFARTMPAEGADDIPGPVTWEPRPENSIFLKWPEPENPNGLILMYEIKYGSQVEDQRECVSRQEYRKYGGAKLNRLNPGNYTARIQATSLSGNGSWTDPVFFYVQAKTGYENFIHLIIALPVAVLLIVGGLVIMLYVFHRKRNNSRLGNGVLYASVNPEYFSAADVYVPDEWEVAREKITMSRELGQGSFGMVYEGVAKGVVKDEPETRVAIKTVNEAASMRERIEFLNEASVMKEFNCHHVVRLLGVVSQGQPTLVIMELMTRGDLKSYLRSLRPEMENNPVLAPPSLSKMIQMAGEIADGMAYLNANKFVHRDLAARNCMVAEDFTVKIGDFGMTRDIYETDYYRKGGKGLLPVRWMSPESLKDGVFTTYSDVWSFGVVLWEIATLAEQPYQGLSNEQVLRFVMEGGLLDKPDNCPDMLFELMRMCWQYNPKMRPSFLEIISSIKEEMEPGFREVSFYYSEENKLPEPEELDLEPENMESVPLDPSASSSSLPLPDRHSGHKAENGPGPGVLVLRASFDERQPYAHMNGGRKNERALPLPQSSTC

Assays:
[1] = target: Insulin-like Growth Factors 1 Receptor (IGF1R) (human (endogenous in TOV-112D)) (UniProt P08069); test: co-IP; TOV-112D parental (PT-sen) cells, not conditioned; lysates in HNTG buffer; protein A or G agarose; western blot
[2] = target: Insulin-like Growth Factors 1 Receptor (IGF1R) (human (endogenous in TOV-112D)) (UniProt P08069); test: co-IP; TOV-112D parental (PT-sen) cells incubated with conditioned medium of TOV-112D PT-res WT cells; lysates in HNTG buffer; western blot
[3] = target: Insulin-like Growth Factors 1 Receptor (IGF1R) (human (endogenous in TOV-112D)) (UniProt P08069); test: co-IP; TOV-112D PT-res ITGA6WT cell lysates (ITGA6KO cells as control) in HNTG buffer; protein A or G agarose; western blot

binding [1]: binds weakly
binding [2]: binds
binding [3]: binds
B1: Integrin α6 (ITGA6) (receptor, UniProt P23229 24-1130)
chain: FNLDTREDNVIRKYGDPGSLFGFSLAMHWQLQPEDKRLLLVGAPRAEALPLQRANRTGGLYSCDITARGPCTRIEFDNDADPTSESKEDQWMGVTVQSQGPGGKVVTCAHRYEKRQHVNTKQESRDIFGRCYVLSQNLRIEDDMDGGDWSFCDGRLRGHEKFGSCQQGVAATFTKDFHYIVFGAPGTYNWKGIVRVEQKNNTFFDMNIFEDGPYEVGGETEHDESLVPVPANSYLGLLFLTSVSYTDPDQFVYKTRPPREQPDTFPDVMMNSYLGFSLDSGKGIVSKDEITFVSGAPRANHSGAVVLLKRDMKSAHLLPEHIFDGEGLASSFGYDVAVVDLNKDGWQDIVIGAPQYFDRDGEVGGAVYVYMNQQGRWNNVKPIRLNGTKDSMFGIAVKNIGDINQDGYPDIAVGAPYDDLGKVFIYHGSANGINTKPTQVLKGISPYFGYSIAGNMDLDRNSYPDVAVGSLSDSVTIFRSRPVINIQKTITVTPNRIDLRQKTACGAPSGICLQVKSCFEYTANPAGYNPSISIVGTLEAEKERRKSGLSSRVQFRNQGSEPKYTQELTLKRQKQKVCMEETLWLQDNIRDKLRPIPITASVEIQEPSSRRRVNSLPEVLPILNSDEPKTAHIDVHFLKEGCGDDNVCNSNLKLEYKFCTREGNQDKFSYLPIQKGVPELVLKDQKDIALEITVTNSPSNPRNPTKDGDDAHEAKLIATFPDTLTYSAYRELRAFPEKQLSCVANQNGSQADCELGNPFKRNSNVTFYLVLSTTEVTFDTPDLDINLKLETTSNQDNLAPITAKAKVVIELLLSVSGVAKPSQVYFGGTVVGEQAMKSEDEVGSLIEYEFRVINLGKPLTNLGTATLNIQWPKEISNGKWLLYLVKVESKGLEKVTCEPQKEINSLNLTESHNSRKKREITEKQIDDNRKFSLFAERKYQTLNCSVNVNCVNIRCPLRGLDSKASLILRSRLWNSTFLEEYSKLNYLDILMRAFIDVTAAAENIRLPNAGTQVRVTVFPSKTVAQYSGVPWWIILVAILAGILMLALLVFILWKCGFFKRSRYDDSVPRYHAVRIRKEEREIKDEKYIDNLEKKQWITKWNENESYS
